Reference: US20230181673A1, “TRI-PEPTIDES AND TREATMENT OF METABOLIC, CARDIOVASCULAR AND INFLAMMATORY DISORDERS” (Diapin Therapeutics, LLC, priority 2018, published 2023)

Test system: liver transcriptome
Format: in vivo, mice
Settings: NASH-diet; leucine 0.17 or glycine 0.33 mg/g/day
Experimental: Library preparation and sequencing were performed by the U-M DNA Sequencing Core on a NovaSeq 6000 Sequencing System (Illumina). RNA-sequencing and pathway analyses were performed as described.
Total RNA from mouse liver samples was extracted as described above. Library preparation and sequencing were performed by the University of Michigan DNA Sequencing Core. RNA was assessed for quality using the TapeStation (Agilent, Santa Clara, Calif.). […] Final libraries were checked for quality and quantity by TapeStation (Agilent) and qPCR using Kapa's library quantification kit for Illumina Sequencing platforms (Kapa Biosystems, KK4835). […]
The quality of the raw Fastq files was checked through FastQC v0.11.8 (https://www.bioinformaties.babraham.ac.uk/projects/fastqc/). Trimmomatic v.0.35 was used to trim the low-quality reads with the parameters: SLIDINGWINDOW:4:20 MINLEN:25.12 The resulted high-quality reads were then mapped to the mouse reference genome (GRCm38.90) using HISAT2 v.2.1.0.13 Gene level quantification was performed using HTSeq-counts v0.6.0 based on the GRCm38.90 genome annotations.14 The R package DESeq2 was then used to identify significant differentially expressed genes. […] 16 The significance of the enrichment was determined by right-tailed Fisher's exact test followed by Benjamini-Hochberg multiple testing adjustment. […]

With `NCC(=O)O` [glycine, reference compound] the “Number of DEG compared to CD (volcano plot)” value was 1300 DEG.

For `CC(C)C[C@H](N)C(=O)O` [leucine], the “Number of DEG compared to CD (volcano plot)” value was 3145 DEG.
